Consider 1 compound from publication PMC8839658, “Design and Activity of Novel Oxadiazole Based Compounds That Target Poly(ADP-ribose) Polymerase” (Molecules, 2022).

For orientation: IC50 means the midpoint of a concentration-inhibition curve. A low value points to inhibition by little substance.

The subject of the test is MCF-7 cells. The test can be described thus: MCF-7 cell viability assay (Alamar Blue). It is filed as cell-based. To be noted: Homo sapiens, MCF7, 72 h, MCF-7, 72 h. As to the method: Initially, the newly synthesized oxadiazoles were examined in cell viability studies in human breast cancer (MCF-7) cells using Alamar Blue assays.
MCF-7 and MDA-MB-231 (2000) cells were cultured in MEM or Leibovitz’s L-15 medium enriched with 2% FBS and maintained in a humidified atmosphere of 5% CO2 at 37 °C [44]. DMSO dissolved compounds were kept as a stock solution, and diluted with a cell culture medium to the desired concentration. Cancer cells (4 × 10^3) were grown overnight in 96-well plates, cultured, and treated with oxadiazoles or Olaparib at 0, 0.01, 0.1, 10, 100, and 1000 µM concentrations for 72 h. The inhibitory effect of the compounds was assessed using Alamar Blue reagent.
MCF-7 and MDA-MB-231 were treated with 5u, 5s and Olaparib (0, 0.01, 0.1, 1, 10, 100 µM) for 72 h, respectively. The viability of MCF-7 (A) and MDA-MB-231 cells (B) were analyzed using a microplate reader to measure the fluorescence of Alamar Blue reagent (excitation wavelength is between 530–560 nm and emission wavelength is 590 nm). The results are means of triplicate determinations.
On the technique in general: The colour change of resazurin is a common sign of viable cells or microbes.

`CC/C(=C(\c1ccccc1)c1ccc(OCCN(C)C)cc1)c1ccccc1` [Tamoxifen, reference compound] had an IC50 of 1690 nM.
